# The list shows only some results of the screen, not a fair sample: it is rich in T/C values a quarter to a half above the control, in often repeated tests (any T/C) and in doses without a T/C. Further doses and runs are listed elsewhere. T/C is the treated group as % of the vehicle group. Some doses have a count of surviving animals in place of a T/C: the source holds a T/C of zero for them, seemingly a mark for toxic or unscored doses. Some doses without a T/C left all or most animals alive at the check, yet need not have been tolerated: the source hardly ever lists a survival T/C far under the control, and the zero likely stands for such cases as well. Survivors were counted at the toxicity check, usually on the fifth day, unless a day is given; later deaths do not show. Schedules are NCI's codes, taken here to give the interval after Q, in days (D) or hours (H), and the number of doses after X. For survival time, this PubChem deposit counts one and a half times the control or more as active, and values a quarter to a half above the control carry no call in these data; other NCI protocols may use other cut-offs. Marks such as (2×) stand for listed records that agree. Some T/C values are followed by the survivors on the day toxicity was checked, most often the fifth; where none is given, no animal had died by that day. Some entries were tested several times; the results are listed from low to high. Some schedule codes hold Z or #, which are not explained here.
# Tested on: CD2F1 mice, L1210 leukemia ip, survival T/C
# Experiment: NCI In Vivo Anticancer Drug Screen. Data for tumor model L1210 Leukemia (intraperitoneal) in CD2F1 (CDF1) mice
# Settings: vehicle: saline, higher T/C = longer survival
# Procedure, shortened: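 Activity against a transplanted murine tumor was judged by comparing the compound group with a vehicle group. The outcome in the treated animals was divided by that in the controls.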
# [1] = T/C endpoint: median survival time, dose: 80.0 mg/kg/injection, schedule: Q04DX003 (ip)
smiles,measurement,setting,value
[N-]=[N+]=CC(=O)CCC(N)C(=O)O (stereo unspecified),T/C,"T/C endpoint: mean survival time, dose: 0.05 mg/kg/injection, schedule: Q01DX009 (ip)",133 % of control
same,T/C,"T/C endpoint: mean survival time, dose: 0.1 mg/kg/injection, schedule: Q01DX007 (ip)",130 % of control
same,T/C,"T/C endpoint: mean survival time, dose: 0.1 mg/kg/injection, schedule: Q01DX009 (ip), evaluated on day 30","134, 146, 158 % of control"
same,T/C,"T/C endpoint: mean survival time, dose: 0.1 mg/kg/injection, schedule: Q01DX009 (ip), evaluated on day 60",127 % of control
same,T/C,"T/C endpoint: mean survival time, dose: 0.1 mg/kg/injection, schedule: Q01DX009 (oral)",125 % of control
same,T/C,"T/C endpoint: mean survival time, dose: 0.1 mg/kg/injection, schedule: Q01DX009 (sc)",130 % of control
same,T/C,"T/C endpoint: mean survival time, dose: 0.2 mg/kg/injection, schedule: Q01DX007 (ip)",140 % of control
same,T/C,"T/C endpoint: mean survival time, dose: 0.2 mg/kg/injection, schedule: Q01DX009 (ip), evaluated on day 30","136, 138, 172 % of control"
same,T/C,"T/C endpoint: mean survival time, dose: 0.2 mg/kg/injection, schedule: Q01DX009 (ip), evaluated on day 60",147 % of control
same,T/C,"T/C endpoint: mean survival time, dose: 0.2 mg/kg/injection, schedule: Q01DX009 (sc)",135 % of control
same,T/C,"T/C endpoint: mean survival time, dose: 0.4 mg/kg/injection, schedule: Q01DX007 (ip)",130 % of control
same,T/C,"T/C endpoint: mean survival time, dose: 0.4 mg/kg/injection, schedule: Q01DX009 (ip), evaluated on day 30","93 [5 of 6 alive], 131, 189 % of control"
same,T/C,"T/C endpoint: mean survival time, dose: 0.4 mg/kg/injection, schedule: Q01DX009 (ip), evaluated on day 60",123 % of control
same,T/C,"T/C endpoint: mean survival time, dose: 0.4 mg/kg/injection, schedule: Q01DX009 (oral)",138 % of control
same,T/C,"T/C endpoint: mean survival time, dose: 0.4 mg/kg/injection, schedule: Q01DX009 (sc)",138 % of control
same,T/C,"T/C endpoint: mean survival time, dose: 0.4 mg/kg/injection, schedule: Q03DX003 (ip)",128 % of control
same,T/C,"T/C endpoint: mean survival time, dose: 0.4 mg/kg/injection, schedule: Q04DX003 (ip)",127 % of control
same,T/C,"T/C endpoint: mean survival time, dose: 0.8 mg/kg/injection, schedule: Q01DX009 (oral)",136 % of control
same,T/C,"T/C endpoint: mean survival time, dose: 0.8 mg/kg/injection, schedule: Q03HX016 (ip)",145 % of control [7 of 10 alive]
same,survivor count,"T/C endpoint: mean survival time, dose: 1.6 mg/kg/injection, schedule: Q03HX008 (ip)",6 of 10
same,T/C,"T/C endpoint: mean survival time, dose: 1.6 mg/kg/injection, schedule: Q03HX016 (ip)",145 % of control [7 of 10 alive]
same,survivor count,"T/C endpoint: mean survival time, dose: 3.1 mg/kg/injection, schedule: Q03HX008 (ip)",3 of 10
same,survivor count,"T/C endpoint: mean survival time, dose: 3.1 mg/kg/injection, schedule: Q03HX024 (ip)",8 of 10
same,T/C,"T/C endpoint: mean survival time, dose: 3.1 mg/kg/injection, schedule: Q04DX003 (ip)",149 % of control
same,survivor count,"T/C endpoint: mean survival time, dose: 6.2 mg/kg/injection, schedule: Q03HX024 (ip)",6 of 10
same,survivor count,"T/C endpoint: mean survival time, dose: 6.25 mg/kg/injection, schedule: Q03HX016 (ip)",5 of 10
same,T/C,"T/C endpoint: mean survival time, dose: 6.25 mg/kg/injection, schedule: Q08DX002 (ip)",127 % of control
same,T/C,"T/C endpoint: mean survival time, dose: 12.5 mg/kg/injection, schedule: Q01DX001 (ip)",139 % of control
same,T/C,"T/C endpoint: mean survival time, dose: 12.5 mg/kg/injection, schedule: Q01DX001 (sc)",135 % of control
same,survivor count,"T/C endpoint: mean survival time, dose: 12.5 mg/kg/injection, schedule: Q03HX008 (ip)",6 of 10
same,survivor count,"T/C endpoint: mean survival time, dose: 12.5 mg/kg/injection, schedule: Q03HX016 (ip)",3 of 10
same,T/C,"T/C endpoint: mean survival time, dose: 12.5 mg/kg/injection, schedule: Q04DX003 (ip)",144 % of control
same,T/C,"T/C endpoint: mean survival time, dose: 12.5 mg/kg/injection, schedule: Q08DX002 (ip)",138 % of control
same,T/C,"T/C endpoint: mean survival time, dose: 25.0 mg/kg/injection, schedule: Q01DX001 (ip)",144 % of control
same,T/C,"T/C endpoint: mean survival time, dose: 25.0 mg/kg/injection, schedule: Q01DX001 (oral)",131 % of control
same,T/C,"T/C endpoint: mean survival time, dose: 25.0 mg/kg/injection, schedule: Q01DX001 (sc)",133 % of control
same,survivor count,"T/C endpoint: mean survival time, dose: 25.0 mg/kg/injection, schedule: Q03HX008 (ip)",4 of 10
same,T/C,"T/C endpoint: mean survival time, dose: 50.0 mg/kg/injection, schedule: Q01DX001 (oral)",137 % of control
same,T/C,"T/C endpoint: mean survival time, dose: 50.0 mg/kg/injection, schedule: Q01DX001 (sc)",141 % of control
same,T/C,"T/C endpoint: mean survival time, dose: 100.0 mg/kg/injection, schedule: Q01DX001 (sc)",130 % of control
same,T/C,"T/C endpoint: mean survival time, dose: 200.0 mg/kg/injection, schedule: Q01DX001 (ip)",137 % of control
same,survivor count,"T/C endpoint: mean survival time, dose: 400.0 mg/kg/injection, schedule: Q01DX001 (oral)",3 of 10
same,T/C,"T/C endpoint: mean survival time, dose: 100.0 micrograms/kg/injection, schedule: Q01DX Z (ip)",125 % of control
same,T/C,"T/C endpoint: mean survival time, dose: 187.5 micrograms/kg/injection, schedule: Q01DX009 (ip)",125 % of control
same,survivor count,"T/C endpoint: mean survival time, dose: 375.0 micrograms/kg/injection, schedule: Q01DX009 (ip)",6 of 6
same,survivor count,"T/C endpoint: mean survival time, dose: 750.0 micrograms/kg/injection, schedule: Q01DX009 (ip)",6 of 6
same,survivor count,"T/C endpoint: mean survival time, dose: 1500.0 micrograms/kg/injection, schedule: Q01DX009 (ip)",6 of 6
same,survivor count,"T/C endpoint: mean survival time, dose: 3000.0 micrograms/kg/injection, schedule: Q01DX009 (ip)",6 of 6
same,T/C,"T/C endpoint: median survival time, dose: 0.05 mg/kg/injection, schedule: Q01DX009 (ip), evaluated on day 5","104, 121, 129 % of control"
same,T/C,"T/C endpoint: median survival time, dose: 0.05 mg/kg/injection, schedule: Q01DX009 (ip), evaluated on day 30",122 % of control
same,T/C,"T/C endpoint: median survival time, dose: 0.1 mg/kg/injection, schedule: Q01DX009 (ip), evaluated on day 5","113, 136, 140 % of control"
same,T/C,"T/C endpoint: median survival time, dose: 0.1 mg/kg/injection, schedule: Q01DX009 (ip), evaluated on day 30",133 % of control
same,T/C,"T/C endpoint: median survival time, dose: 0.1 mg/kg/injection, schedule: Q01DX009 (ip), evaluated on day 60",154 % of control
same,T/C,"T/C endpoint: median survival time, dose: 0.13 mg/kg/injection, schedule: Q01DX009 (ip)",135 % of control
same,T/C,"T/C endpoint: median survival time, dose: 0.2 mg/kg/injection, schedule: Q01DX009 (ip), evaluated on day 5","116, 135, 144 % of control"
same,T/C,"T/C endpoint: median survival time, dose: 0.2 mg/kg/injection, schedule: Q01DX009 (ip), evaluated on day 30",111 % of control
same,T/C,"T/C endpoint: median survival time, dose: 0.2 mg/kg/injection, schedule: Q01DX009 (ip), evaluated on day 60",129 % of control
same,T/C,"T/C endpoint: median survival time, dose: 0.4 mg/kg/injection, schedule: Q01DX009 (ip), evaluated on day 5","124, 145, 147 % of control"
same,T/C,"T/C endpoint: median survival time, dose: 0.4 mg/kg/injection, schedule: Q01DX009 (ip), evaluated on day 30",116 % of control
same,T/C,"T/C endpoint: median survival time, dose: 0.63 mg/kg/injection, schedule: Q04DX003 (ip)",129 and 131 % of control
same,survivor count,"T/C endpoint: median survival time, dose: 0.76 mg/kg/injection, schedule: Q01DX009 (ip)",9 of 10
same,T/C,"T/C endpoint: median survival time, dose: 1.25 mg/kg/injection, schedule: Q04DX003 (ip)",133 % of control (2×)
same,survivor count,"T/C endpoint: median survival time, dose: 1.56 mg/kg/injection, schedule: Q01DX009 (ip)",4 of 10
same,survivor count,"T/C endpoint: median survival time, dose: 3.12 mg/kg/injection, schedule: Q01DX009 (ip)",6 of 6
same,survivor count,"T/C endpoint: median survival time, dose: 3.13 mg/kg/injection, schedule: Q01DX009 (ip)",7 of 10
same,survivor count,"T/C endpoint: median survival time, dose: 6.25 mg/kg/injection, schedule: Q01DX009 (ip)",2 of 6
same,survivor count,"T/C endpoint: median survival time, dose: 12.5 mg/kg/injection, schedule: Q01DX009 (ip)",0 of 6
same,T/C,"T/C endpoint: median survival time, dose: 25.0 mg/kg/injection, schedule: Q01DX001 (ip), evaluated on day 5",129 % of control
same,T/C,"T/C endpoint: median survival time, dose: 25.0 mg/kg/injection, schedule: Q01DX001 (ip), evaluated on day 60",129 % of control [9 of 10 alive]
same,survivor count,"T/C endpoint: median survival time, dose: 25.0 mg/kg/injection, schedule: Q01DX009 (ip)",0 of 6
same,T/C,"T/C endpoint: median survival time, dose: 50.0 mg/kg/injection, schedule: Q01DX001 (ip), evaluated on day 5",136 % of control
same,T/C,"T/C endpoint: median survival time, dose: 50.0 mg/kg/injection, schedule: Q01DX001 (ip), evaluated on day 60",136 % of control
same,survivor count,"T/C endpoint: median survival time, dose: 50.0 mg/kg/injection, schedule: Q01DX009 (ip)",0 of 6
same,T/C,[1],133 % of control
same,survivor count,[1],6 of 8
same,survivor count,"T/C endpoint: median survival time, dose: 100.0 mg/kg/injection, schedule: Q01DX009 (ip)",0 of 6

# — PubChem BioAssay AID256 (DTP/NCI, 2004)
